Laboratory results published in the supplement of paper PMC11451515.

Assays:
Conditions in all cases: 48 h
NOMO1 [1] = experiment: cell viability relative to DMSO control; higher = less cytotoxic
How it was run: (§1)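 Cells were incubated for 48 h at 37°C before CellTiter-Glo One luminescence was read. The cells were NOMO1 or SEM (500 cells/well) or P12-Ichikawa (1000 cells/well) leukemia cells, adapted for at least four passages in each medium and seeded in 1536-well plates (5 μl). Dosing used library compounds in DMSO applied by pin over 11 threefold points, 47 μM to 0.79 nM. Viability is the per-plate percentage of DMSO wells, with cell-free wells as background.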

SEM cells [2] = experiment: as above
How it was run: as §1

P12-Ichikawa [3] = experiment: as above
How it was run: as §1

NOMO1 [4] = experiment: AUC of viability dose-response curve (% viability x log10 dose units); higher = less sensitive
How it was run: (§2)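 Medium-adapted leukemia cells in 1536-well plates, at 500 or 1000 cells/well, were incubated for 48 h at 37°C with library compounds in DMSO at 11 threefold doses from 47 μM to 0.79 nM. CellTiter-Glo One luminescence normalised per plate to DMSO and cell-free wells was fitted with a four-parameter log-logistic model over log10 doses. Area under the curve was integrated from this fit by trapezoidal rule, with curves beyond full viability scaled and failed quality-control curves removed.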

SEM cells [5] = experiment: as above
How it was run: as §2

P12-Ichikawa [6] = experiment: as above
How it was run: as §2

Cc1cnc(C(=O)NCCc2ccc([S+](=O)([O-])NC(=O)NC3CCCCC3)cc2)cn1
cell viability [%]
Conditions	NOMO1 [1]	P12-Ichikawa [3]	SEM cells [2]
HPLM + 10% dialyzed FBS, 0.000781 µM	92.5	99.6	91.2
HPLM + 10% dialyzed FBS, 0.00234 µM	104	111	50.5
HPLM + 10% dialyzed FBS, 0.00702 µM	106	107	94.2
HPLM + 10% dialyzed FBS, 0.0211 µM	117	101	101
HPLM + 10% dialyzed FBS, 0.0632 µM	121	109	98.6
HPLM + 10% dialyzed FBS, 0.19 µM	112	103	106
HPLM + 10% dialyzed FBS, 0.569 µM	119	105	102
HPLM + 10% dialyzed FBS, 1.71 µM	97.1	100	101
HPLM + 10% dialyzed FBS, 5.12 µM	119	107	112
HPLM + 10% dialyzed FBS, 15.4 µM	84.3	85	113
HPLM + 10% dialyzed FBS, 46.1 µM	59.4	56.3	88.8
RPMI 5 mM glucose + 10% FBS, 0.000781 µM	86.5	103	89.8
RPMI 5 mM glucose + 10% FBS, 0.00234 µM	95.1	102	51.2
RPMI 5 mM glucose + 10% FBS, 0.00702 µM	87.5	101	101
RPMI 5 mM glucose + 10% FBS, 0.0211 µM	90.5	104	92.6
RPMI 5 mM glucose + 10% FBS, 0.0632 µM	92.9	103	91
RPMI 5 mM glucose + 10% FBS, 0.19 µM	86.3	108	94.7
RPMI 5 mM glucose + 10% FBS, 0.569 µM	94.8	105	98.9
RPMI 5 mM glucose + 10% FBS, 1.71 µM	96.5	119	101
RPMI 5 mM glucose + 10% FBS, 5.12 µM	96.6	127	99.4
RPMI 5 mM glucose + 10% FBS, 15.4 µM	87.6	96	97.1
RPMI 5 mM glucose + 10% FBS, 46.1 µM	80.6	73.2	78.8
RPMI 5 mM glucose + 10% dialyzed FBS, 0.000781 µM	96.6	90.9	97.7
RPMI 5 mM glucose + 10% dialyzed FBS, 0.00234 µM	96.6	97.8	46.2
RPMI 5 mM glucose + 10% dialyzed FBS, 0.00702 µM	103	100	90.3
RPMI 5 mM glucose + 10% dialyzed FBS, 0.0211 µM	98.3	96	100
RPMI 5 mM glucose + 10% dialyzed FBS, 0.0632 µM	110	105	91.3
RPMI 5 mM glucose + 10% dialyzed FBS, 0.19 µM	107	105	96.3
RPMI 5 mM glucose + 10% dialyzed FBS, 0.569 µM	107	101	89.3
RPMI 5 mM glucose + 10% dialyzed FBS, 1.71 µM	100	110	97.5
RPMI 5 mM glucose + 10% dialyzed FBS, 5.12 µM	101	105	102
RPMI 5 mM glucose + 10% dialyzed FBS, 15.4 µM	88.9	93.8	87.4
RPMI 5 mM glucose + 10% dialyzed FBS, 46.1 µM	77.2	68	67.7

AUC of viability dose-response curve
Conditions	NOMO1 [4]	P12-Ichikawa [6]	SEM cells [5]
HPLM + 10% dialyzed FBS	455	457	451
RPMI 5 mM glucose + 10% FBS	434	464	435
RPMI 5 mM glucose + 10% dialyzed FBS	464	466	422
